Experimental findings from paper PMC11044505 are described below.

This assay concerns the target T1, Flag-SMN (Drosophila, wild-type transgene) (Drosophila) (UniProt Q9VV74).
T1 sequence: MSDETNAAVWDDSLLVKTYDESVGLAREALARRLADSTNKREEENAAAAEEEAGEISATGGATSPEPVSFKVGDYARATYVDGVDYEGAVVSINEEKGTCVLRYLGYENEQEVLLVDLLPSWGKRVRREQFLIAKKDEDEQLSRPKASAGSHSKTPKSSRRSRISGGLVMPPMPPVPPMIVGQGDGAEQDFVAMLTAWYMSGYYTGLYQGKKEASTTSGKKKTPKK
As to the kind of experiment: affinity purification with mass spectrometry; Flag-SMN pulldowns from embryonic lysates expressing Flag-SMN as the sole source of SMN protein.

These are yes or no findings as the source states them, for the method shown. Binding seen in cells or lysates may run through a third protein. These calls come from enrichment with a bait or labelling near it, and not all partners need be listed. No binding means not detected with the bait. Where a sequence is shown, tags or fusion partners need not be part of it.

As for Drosophila Traf6 (endogenous), the binding result is given as “no binding”.
